Leishmania in macrophages: 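Cell assay of Leishmania donovani living inside macrophages; the read-out is not stated. Concentration: 30 µM. The record gives no direction; compounds that gave an IC50 in retests scored well above the rest, so higher reads as stronger inhibition. Size under these conditions: about 69,000 compounds, about 1,000 of them at 50% or above in at least one test.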
PfKRS1: 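Enzyme assay of the cytosolic lysyl-tRNA synthetase in 384-well plates, read by luminescence. Target: Lysine-tRNA ligase, Plasmodium falciparum 3D7 (UniProt Q8IDJ8). Concentration: 30 µM. Higher reads as stronger inhibition, judged from the few compounds that gave an IC50. Size under these conditions: about 69,000 compounds, about 49 of them at 50% or above in at least one test.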
LiHisRS: 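Histidine-tRNA ligase, Leishmania infantum (UniProt A4I591). Enzyme assay of histidyl-tRNA synthetase; the read-out is not stated. Compounds at 30 µM. Direction is inferred from retests: higher values go with stronger inhibition. The assay is labelled LdHisRS but filed under L. infantum. About 69,000 compounds were tested under these conditions; 0.6% (about 410) showed 50% or more at least once.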

The chains behind the UniProt entries cited, without tags or fusion partners. Residues count along the entry.
UniProt Q8IDJ8, 1-583: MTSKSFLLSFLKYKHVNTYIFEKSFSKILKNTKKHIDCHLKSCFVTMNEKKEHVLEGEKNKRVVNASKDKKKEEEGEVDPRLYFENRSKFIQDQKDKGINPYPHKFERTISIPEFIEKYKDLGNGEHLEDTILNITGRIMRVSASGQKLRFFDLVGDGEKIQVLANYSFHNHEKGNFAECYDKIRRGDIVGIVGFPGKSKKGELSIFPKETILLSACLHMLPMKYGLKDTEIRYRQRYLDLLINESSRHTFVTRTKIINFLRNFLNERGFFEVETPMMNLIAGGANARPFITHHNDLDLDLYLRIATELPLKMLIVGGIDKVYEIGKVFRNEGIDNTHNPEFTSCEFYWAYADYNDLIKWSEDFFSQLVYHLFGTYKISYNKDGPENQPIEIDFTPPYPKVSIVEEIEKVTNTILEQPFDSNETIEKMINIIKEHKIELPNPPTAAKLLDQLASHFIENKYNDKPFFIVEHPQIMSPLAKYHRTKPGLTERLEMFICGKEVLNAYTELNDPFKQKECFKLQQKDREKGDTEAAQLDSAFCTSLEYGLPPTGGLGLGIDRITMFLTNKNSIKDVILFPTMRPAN
UniProt A4I591, 1-473: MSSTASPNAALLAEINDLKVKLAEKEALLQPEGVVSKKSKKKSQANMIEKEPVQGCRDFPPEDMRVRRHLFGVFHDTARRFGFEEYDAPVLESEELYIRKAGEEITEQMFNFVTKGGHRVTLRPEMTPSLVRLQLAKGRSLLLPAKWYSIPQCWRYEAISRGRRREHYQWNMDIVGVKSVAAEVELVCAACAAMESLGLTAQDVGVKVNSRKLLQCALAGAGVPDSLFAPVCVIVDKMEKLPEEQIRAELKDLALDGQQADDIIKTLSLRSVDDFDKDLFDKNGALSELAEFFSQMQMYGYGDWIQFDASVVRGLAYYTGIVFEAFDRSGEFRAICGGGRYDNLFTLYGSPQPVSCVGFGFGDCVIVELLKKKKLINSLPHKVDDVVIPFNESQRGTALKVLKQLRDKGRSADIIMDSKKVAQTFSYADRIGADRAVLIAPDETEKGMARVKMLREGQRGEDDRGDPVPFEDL

Values are the deposited “Percent Effect”, in %. How 0% and 100% were set is not recorded. Most values in the screen are low, and negative values occur. This is an unselected part of the compounds tested. Two or more numbers in one place are separate tests of the same structure; such repeats can differ widely. A dash means the value is not listed here; it may have been measured.

structure	Leishmania in macrophages	PfKRS1	LiHisRS
Cc1ncc2c(n1)CN(Cc1nc(-c3cccs3)no1)CC2	12.33	-1.668	19.64
O=C(Cc1ccccn1)N1CCC2(CC1)CC(Oc1ccccn1)CO2 (centres undefined)	-	-2.562	13.87
O=C1CCc2cc(C(=O)NCc3ccc(-n4cncn4)nc3)ccc2N1	-8.649	0.9633	16.67
O=C(Nc1ccccc1)C1=NOC2(CCNCC2)C1	-	3.171	13.16
CC(Oc1cc(Cl)cc(Cl)c1)C(=O)NCCC(=O)N(C)C (centres undefined)	13.2	2.107	14.29
Cn1cc(C(=O)N[C@@H]2CN(Cc3ccc(F)cc3)[C@@H]3CCCO[C@@H]32)cn1	-	4.588	28.57
O=C(N[C@@H]1CN(c2ncccn2)[C@@H]2CCCO[C@@H]21)c1cscn1	-	4.449	13.13
Cc1cccc(C(C(=O)NCCCc2nnc3ccccn23)N(C)C)c1 (centres undefined)	15.91	-1.895	1.587
O=C(O)C(F)(F)F.O=C1NC2(CCN(CC3CC3)CC2)CC1c1ccccc1 (centres undefined)	-3.083 and 5.571	-	-
CNc1cc(C)nc(N2Cc3cnn(Cc4ccc(F)cc4)c3C2)n1	26.97	3.292	18.75
CS(=O)(=O)NCC1CCCCN1C(=O)Nc1cccnc1N1CCCC1 (centres undefined)	14.21	6.349	25.71
Cc1cc(S(=O)(=O)N2CCC(N3CCC(O)C3)CC2)c(Cl)cc1Cl (centres undefined)	47.61	-1.672	2.564
CCc1noc(-c2cccc(NC(=O)C(C)(C)C)c2)n1	-9.764	-3.84	6.557
O=C(Nc1ccc(OC2CCCC2)cc1)C1CCCN1c1nccs1 (centres undefined)	1.002	-1.439	10.19
O=C(NC1CC1)N1CCC2(CC1)C(=O)NCCN2Cc1ccccc1.O=C(O)C(F)(F)F	6.332	-	-
CS(=O)(=O)NC[C@]12COC[C@H]1CN(C(=O)c1ccoc1)C2	-	-1.355	12.62
Cc1ccc(C)c(S(=O)(=O)NC(=O)c2ccc(C)[nH]c2=O)c1	22.61	0.6722	7.273
CCN1CCOCC12CCN(C(=O)c1ccsc1)CC2	-	1.625	8.547
Cn1cc(C(=O)NC2CCN(C(=O)NCCSC(F)(F)F)CC2)cn1	17.3	6.872	21.62
COc1ccc(CNC(=O)NC(C)Cn2cccn2)cc1O (centres undefined)	18.05	7.045	10.67
[H][C@@]12CCN(S(C)(=O)=O)[C@]1([H])CC[C@H](C(=O)NCCOC)O2	-18.67	-	-
O=C(NCc1cccnc1)[C@@H]1C[C@H]2[C@H](CCN2c2ncc(F)cn2)O1	-	2.292	19
Cc1nc(CN2C(=O)COC3(CCN(Cc4ccco4)CC3)C2C)cs1 (centres undefined)	-	-1.086	11.43
CCOC(=O)CNC(=O)c1scnc1C	12.98	3.618	9.735
CCCc1n[nH]c(C2CN(CCC(F)(F)F)CCO2)n1 (centres undefined)	19.12	-1.998	2.609
Cc1nc(C)n(CC2CCCN2CC(=O)NCCC2=CCCCC2)n1 (centres undefined)	1.02	3.118	15.66
Cc1ccc(CN2Cc3nnn(C)c3C(COCC3CC3)C2)o1.O=C(O)C(F)(F)F (centres undefined)	19.55	-	-
Cc1cc(C(F)(F)F)c2c(C3CCN(S(=O)(=O)N(C)C)CC3)noc2n1	24.43	4.616	22.22
COCC(C)(C#N)NC(=O)COc1ccccc1 (centres undefined)	-6.5	5.044	8.547
CC(C)(C)CN1CCC(c2nccnc2Nc2cnccn2)CC1	16.16	0.2325	11.27
CS(=O)(=O)c1nccn1Cc1ccc(OC(F)F)cc1	-25.74	2.755	8.602
O=C(CC1CC1)NC[C@]12COC[C@H]1CN(c1ncccn1)C2	-	0.6704	3.03
O=c1[nH]c2nc(NC3CC3)ncc2c(=O)n1-c1ccc(F)cc1	24.05	7.929	13.56
CC(C)(C)NC(=O)N1CCC(Oc2ccc(C(F)(F)F)cn2)CC1	3.068	4.028	5.479
CC(C)CCN1CC2(CCCN(C(=O)CNC(=O)N(C)C)C2)CCC1=O (centres undefined)	-4.206	1.149	6.122
COc1cc(C(=O)NS(=O)(=O)c2cccc(C#N)c2)ccc1C	13.55	-0.8969	0
CNS(=O)(=O)c1ccc(CNC(=O)NCC2CCOC2)cc1 (centres undefined)	26.83	2.388	13.33
CC(C)(C)c1noc(CN2CCCCC2Cn2cncn2)n1 (centres undefined)	10.08	0.9203	12.5
NCC1CCCCN1Cc1cc(O)c2cccc(F)c2n1 (centres undefined)	-33.11	-3.229	13.49
C[C@@H]1CN(CC(C)(C)N2CCOCC2)C[C@@]1(O)C1CC1	13.74	2.1	-4.478
CCOCCN1Cc2cnn(C)c2C(COCC)C1 (centres undefined)	-	-3.204	23.53
CCC1c2ccc(C)n2CCN1C(=O)Cn1cnc2sc(C)cc2c1=O (centres undefined)	28.99	3.481	9.859
Cn1ncnc1CNC(=O)N(CCCO)C1CCc2ccccc21 (centres undefined)	-3.785	-0.5947	4.464
Fc1cccc(CN2CCC[C@H](Cn3nnc(-c4ccccn4)n3)C2)c1	-11.36	2.703	8.392
COc1ccc(Br)cc1SCCCS(C)(=O)=O	35.28	2.652	20.21
CC(C)CCC(=O)N1CCN(C(C)c2nnc(CC(C)C)o2)CC1 (centres undefined)	-33.35	-1.273	15.62
Cc1nc(CN2CCO[C@H]3[C@@H](OCc4ccccn4)CC[C@@H]32)cs1	-	13.37	17.65
CCc1ocnc1C(=O)Nc1ccc2ccn(CCN(C)C)c2c1	-1.774	-0.7454	12.5
CCOC(=O)N1CCC(NCC2CCN(c3cnn(C)c(=O)c3)C2)CC1 (centres undefined)	-16.73	1.129	5.714
CCc1ccc(CN2C[C@H](OC)[C@H]3COC[C@H]32)o1	-	2.929	16.98
Cc1nc(NCCN2CCCC2=O)cc(C2CN(C)CCO2)n1 (centres undefined)	-45.44	-2.047	5.369
Cc1cc(C)n(-c2cncc(N3CCC(C(=O)N(C)C)CC3)n2)n1	-6.574	2.374	-8.036
CC(C)(C)OC(=O)N[C@@H]1C[C@@H](O)CN(C(=O)c2ccc(F)cc2)C[C@H]1O	-42.93	1.674	8.511
CC(=O)c1ccc(NC(=O)NC(C(=O)N(C)C)C(C)C)cc1 (centres undefined)	18.14	-5.143	7.5
O=C(O)C(F)(F)F.O=S(=O)(c1cccs1)N1CCCn2nnc(CN3CCCCC3)c2C1	15.06	-	-
Cn1ccnc1CN(CCO)C(=O)c1cc2ccccc2o1	15.12	-2.707	12.9
Cc1csc(CN(CC2CCCO2)C(=O)c2ccc(C)nc2C)n1 (centres undefined)	-39.1	3.255	6.25
O=C(NCCC1CCN(CC(F)(F)F)CC1)C1CCOC1 (centres undefined)	10.18	-2.482	15.04
COc1cc(C(=O)N2C[C@H]3CC[C@@H]2CN(Cc2cscn2)C3)ccn1	-	-0.3788	18.18

Repeated from the top, 6 entries:

{"structure": "Cc1ncc2c(n1)CN(Cc1nc(-c3cccs3)no1)CC2", "Leishmania in macrophages": 12.33, "PfKRS1": -1.668, "LiHisRS": 19.64}
{"structure": "O=C(Cc1ccccn1)N1CCC2(CC1)CC(Oc1ccccn1)CO2", "stereo": "centres undefined", "PfKRS1": -2.562, "LiHisRS": 13.87}
{"structure": "O=C1CCc2cc(C(=O)NCc3ccc(-n4cncn4)nc3)ccc2N1", "Leishmania in macrophages": -8.649, "PfKRS1": 0.9633, "LiHisRS": 16.67}
{"structure": "O=C(Nc1ccccc1)C1=NOC2(CCNCC2)C1", "PfKRS1": 3.171, "LiHisRS": 13.16}
{"structure": "CC(Oc1cc(Cl)cc(Cl)c1)C(=O)NCCC(=O)N(C)C", "stereo": "centres undefined", "Leishmania in macrophages": 13.2, "PfKRS1": 2.107, "LiHisRS": 14.29}
{"structure": "Cn1cc(C(=O)N[C@@H]2CN(Cc3ccc(F)cc3)[C@@H]3CCCO[C@@H]32)cn1", "PfKRS1": 4.588, "LiHisRS": 28.57}

Measurements from “University of Dundee, Small-Polar-MMV Screening Library” (2021), ChEMBL document CHEMBL3988442.